PubChem BioAssay AID1159578, Peter MacCallum Cancer Centre | 2015

Aim: 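Genome-wide hunt for genes controlling movement of lymphatic endothelial cells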 (primary screen)
Cells: human lymphatic endothelial cells
Knock-down reagent: siRNA pool against human genes, 40 nM
Duration: 48 h after transfection
Detection: 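Cells stained with dye and imaged after a scratch; covered wound area and nuclei counted, duplicates averaged, migration set against mock wells and turned into a robust z-score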
Reading the numbers: migration robust z-score: higher = faster migration into the scratch; migration relative to mock: higher = more scratch area covered than mock; nuclei per well: higher = more cells in the well
Rule for the call: 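Migration changed when robust z exceeds 2 or falls below -2 and mean nuclei number is at least 3300; otherwise not called changed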
Calls: active = migration changed; inactive = no migration change, or too few cells
The whole screen tested about 18,000 reagents; this is a part drawn at random. Over the whole deposit, about 1,030 (5.7%) are marked active. 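Inactive calls also include pools with fewer than 3300 nuclei, whose migration was not assessed.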 The raw values are shown without normalisation.

gene,migration robust z-score,migration class with cell-count check,migration relative to mock,"nuclei per well, duplicate mean",Outcome
ARIH1,1.27,migration z between -2 and 2; enough cells,1.05,6024,inactive
KIF6,-0.44,migration z between -2 and 2; enough cells,0.77,6580,inactive
NECAP1,0.53,migration z between -2 and 2; enough cells,1.02,5799,inactive
ATF2,-2.46,migration z below -2; enough cells,0.33,5537,active
PLSCR5,0.02,migration z between -2 and 2; enough cells,0.89,7165,inactive
TLL2,-3.01,migration z below -2; enough cells,0.22,4245,active
KIR2DL4,3.19,migration z above 2; enough cells,1.71,5863,active
MRPS10,-2.66,migration z below -2; enough cells,0.22,3595,active
MED13,0.36,migration z between -2 and 2; enough cells,0.88,6099,inactive
C6orf118,2.18,migration z above 2; enough cells,1.45,5410,active
PTPN13,-0.73,migration z between -2 and 2; enough cells,0.66,6364,inactive
ATP2B4,0.99,migration z between -2 and 2; enough cells,1,6799,inactive
SAA2,-0.42,migration z between -2 and 2; enough cells,0.78,5490,inactive
LAMA5,-0.73,migration z between -2 and 2; enough cells,0.66,5165,inactive
PREPL,0.15,migration z between -2 and 2; enough cells,0.84,5974,inactive
HDAC2,-0.76,migration z between -2 and 2; enough cells,0.66,5067,inactive
SERPINB2,-1.04,migration z between -2 and 2; enough cells,0.6,5400,inactive
ELFN2,-0.62,migration z between -2 and 2; enough cells,0.72,4902,inactive
RFXAP,-0.96,migration z between -2 and 2; enough cells,0.62,4852,inactive
FBXO33,0.57,migration z between -2 and 2; enough cells,0.92,5342,inactive
SIGLEC11,1.37,migration z between -2 and 2; enough cells,1.24,4926,inactive
FER1L6,-2.81,migration z below -2; enough cells,0.16,6006,active
VAX1,0.83,migration z between -2 and 2; enough cells,1.09,6285,inactive
ABCA5,0.4,migration z between -2 and 2; enough cells,0.99,7032,inactive
RNH1,1.02,migration z between -2 and 2; enough cells,1.15,5868,inactive
RBP5,-0.23,migration z between -2 and 2; enough cells,0.82,5699,inactive
SERPINF2,0.48,migration z between -2 and 2; enough cells,1.01,6648,inactive
SOX4,-0.72,migration z between -2 and 2; enough cells,0.66,5928,inactive
TBC1D1,-0.45,migration z between -2 and 2; enough cells,0.76,5616,inactive

6 entries from above in another layout:
{"gene":"KIF6","migration robust z-score":-0.44,"migration class with cell-count check":"migration z between -2 and 2; enough cells","migration relative to mock":0.77,"nuclei per well, duplicate mean":6580,"Outcome":"inactive"}
{"gene":"NECAP1","migration robust z-score":0.53,"migration class with cell-count check":"migration z between -2 and 2; enough cells","migration relative to mock":1.02,"nuclei per well, duplicate mean":5799,"Outcome":"inactive"}
{"gene":"ATF2","migration robust z-score":-2.46,"migration class with cell-count check":"migration z below -2; enough cells","migration relative to mock":0.33,"nuclei per well, duplicate mean":5537,"Outcome":"active"}
{"gene":"PLSCR5","migration robust z-score":0.02,"migration class with cell-count check":"migration z between -2 and 2; enough cells","migration relative to mock":0.89,"nuclei per well, duplicate mean":7165,"Outcome":"inactive"}
{"gene":"TLL2","migration robust z-score":-3.01,"migration class with cell-count check":"migration z below -2; enough cells","migration relative to mock":0.22,"nuclei per well, duplicate mean":4245,"Outcome":"active"}
{"gene":"KIR2DL4","migration robust z-score":3.19,"migration class with cell-count check":"migration z above 2; enough cells","migration relative to mock":1.71,"nuclei per well, duplicate mean":5863,"Outcome":"active"}

Additional entries follow:
gene,migration robust z-score,migration class with cell-count check,migration relative to mock,"nuclei per well, duplicate mean",Outcome
COTL1,0.6,migration z between -2 and 2; enough cells,1.04,5442,inactive
MED4,-0.9,migration z between -2 and 2; enough cells,0.63,5248,inactive
ARHGEF39,-0.67,migration z between -2 and 2; enough cells,0.71,5292,inactive
ACAT1,0.42,migration z between -2 and 2; enough cells,0.88,4558,inactive
CALML5,-1.35,migration z between -2 and 2; enough cells,0.53,3963,inactive
C1QTNF9B,-1.24,migration z between -2 and 2; enough cells,0.56,6565,inactive
RFT1,-0.29,migration z between -2 and 2; enough cells,0.81,5584,inactive
REN,0.05,migration z between -2 and 2; enough cells,0.82,5702,inactive
MAFG,0.05,migration z between -2 and 2; enough cells,0.82,5928,inactive
TRARG1,0.88,migration z between -2 and 2; enough cells,1.12,5458,inactive
ZFP69B,-1.5,migration z between -2 and 2; enough cells,0.5,5571,inactive
PCDHA3,0.68,migration z between -2 and 2; enough cells,1.06,6396,inactive
ATP6V0E1,-0.62,migration z between -2 and 2; enough cells,0.68,4202,inactive
PRMT2,-1.56,migration z between -2 and 2; enough cells,0.5,6692,inactive
CCDC127,0.6,migration z between -2 and 2; enough cells,1.04,6455,inactive
ROCK1,-0.2,migration z between -2 and 2; enough cells,0.76,5504,inactive
PDZRN4,-0.98,migration z between -2 and 2; enough cells,0.62,5810,inactive
AKAP9,-0.11,migration z between -2 and 2; enough cells,0.78,4580,inactive
GNAI1,-1.02,migration z between -2 and 2; enough cells,0.61,5410,inactive
LGALS13,-0.2,migration z between -2 and 2; enough cells,0.76,5554,inactive
EFCAB7,0.92,migration z between -2 and 2; enough cells,1.12,5510,inactive
SLC16A13,-0.82,migration z between -2 and 2; enough cells,0.67,5352,inactive
PPP4R3B,-1.44,migration z between -2 and 2; enough cells,0.52,6432,inactive
METTL4,0.01,migration z between -2 and 2; enough cells,0.88,5160,inactive
HSPBP1,0.06,migration z between -2 and 2; enough cells,0.9,7235,inactive
FBXO48,0.96,migration z between -2 and 2; enough cells,0.99,5417,inactive
HTR3D,-1.04,migration z between -2 and 2; enough cells,0.62,5550,inactive
GRM5,0.54,migration z between -2 and 2; enough cells,0.91,5747,inactive
